Reference: paper PMC6891087
These are yes or no findings as the source states them, for the method shown. In cells and extracts the contact can be indirect. Some results given as binding are weak or reduced against the parent protein; the word gives no strength. Where a sequence is shown, tags or fusion partners need not be part of it.

Target: T1, Myc-Borealin, Q53HL2
T1 chain: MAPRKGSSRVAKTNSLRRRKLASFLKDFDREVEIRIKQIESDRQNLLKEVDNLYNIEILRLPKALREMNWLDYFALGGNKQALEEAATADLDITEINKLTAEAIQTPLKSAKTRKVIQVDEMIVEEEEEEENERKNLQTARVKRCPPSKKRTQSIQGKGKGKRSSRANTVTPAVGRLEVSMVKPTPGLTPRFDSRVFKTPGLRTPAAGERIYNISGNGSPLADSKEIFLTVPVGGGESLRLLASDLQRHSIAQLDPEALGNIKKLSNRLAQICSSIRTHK
Test: co-IP; anti-myc antibody on protein G beads; lysate of mitotic HeLa Kyoto cells (RO3306 washout, shake-off) transfected with Myc-Borealin constructs; 50 mM Tris pH 7.4, 400 mM NaCl, 0.5% IGEPAL, 0.1% deoxycholate; blots for Survivin, INCENP, Aurora B
Details: remark: other sources report otherwise

B1: Aurora B kinase (endogenous, HeLa), Q96GD4 1-344 (enzyme)
chain: MAQKENSYPWPYGRQTAPSGLSTLPQRVLRKEPVTPSALVLMSRSNVQPTAAPGQKVMENSSGTPDILTRHFTIDDFEIGRPLGKGKFGNVYLAREKKSHFIVALKVLFKSQIEKEGVEHQLRREIEIQAHLHHPNILRLYNYFYDRRRIYLILEYAPRGELYKELQKSCTFDEQRTATIMEELADALMYCHGKKVIHRDIKPENLLLGLKGELKIADFGWSVHAPSLRRKTMCGTLDYLPPEMIEGRMHNEKVDLWCIGVLCYELLVGNPPFESASHNETYRRIVKVDLKFPASVPMGAQDLISKLLRHNPSERLPLAQVSAHPWVRANSRRVLPPSALQSVA
Q: With B1 as the binder, how does the binding read?
A: Its binding is “binds”.
